A short description of this test: qHTS Assay for Lipid Storage Modulators in Drosophila S3 Cells.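 For cell number change: cells counted by Cell Tracker Red CMTPX staining in the red channel.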 Particulars: BODIPY lipid droplet fluorescence, 18-24 h; for cell number change: measured here: cell count max response, cells fed with added oleic acid. The method in brief: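 Drosophila S3 cells got compounds at several concentrations plus oleic acid (400 uM solution). Laser-scanning cytometry with 488 nm excitation read lipid droplets at 500-530 nm and cells at 575-640 nm. Percent activity was relative to 20 uM Triacsin C.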

Setting [1] is: measured here: lipid fluorescence (Fed channel) AC50, cells fed with added oleic acid.
Setting [2] is: measured here: cell number channel AC50, cells fed with added oleic acid.

The list shows a part of the results. Further columns of the screen follow, without active or inactive calls. The list favours compounds with an active or inconclusive main result. Potencies come from curve fits of mixed quality, noted in brackets.

Regarding `O=C(NCCc1ccc(Cl)cc1)C1(c2ccccc2)CC1`, the cell number change was 14.1%.

For `CC[n+]1c(/C=C(\C)OC)sc2ccccc21`, the cell number change came out at 7.07%. The AC50 under setting [1] was 2.31 µM [rising, partial curve, poor fit].

Take `Cn1c(C(=O)O)c(CC(=O)Nc2ccccc2F)c2ccccc21`: the cell number change was 12.5%. Also, under setting [1], the concentration at half-maximal activity (AC50) is 1.84 µM [falling, single point].

Regarding `O=C(/C=C/c1ccccc1Cl)Nc1cccc(O)c1`, the cell number change is -15%. Besides, under setting [1], the AC50 is 0.651 µM [falling, single point].

Consider `O=C(NN1CC(C(=O)OCc2ccc(Cl)cc2Cl)CC1=O)c1ccccc1` (centres undefined), for which the cell number change was found to be 8.09%. Under setting [1], the AC50 is 29.1 µM [rising, single point].

Regarding `Cn1cc(C(c2ccccn2)c2cn(C)c3ccccc23)c2ccccc21`, the cell number change was -0.62%. Besides, the AC50 under setting [2] was 0.13 µM [falling, full curve, poor fit]. In addition, the half-maximal activity concentration (AC50) under setting [1] was 6.51 µM [falling, single point].

On to `C/C(N)=C(/C#N)C(=O)CSc1nnnn1-c1ccc(C)cc1C`, for which the cell number change is -23.4%. Moreover, under setting [1], the AC50 was 32.6 µM [falling, single point].

Turning to `COCCN(CCOC)S(=O)(=O)c1ccc(OC)cc1`, the cell number change amounted to 8.29%.

Regarding `Nc1nc2nccc(-c3ccc(Cl)cc3)n2n1`, the cell number change was determined as 59.4%. For the same compound, the AC50 under setting [2] is 4.61 µM [rising, partial curve, poor fit].

For the compound `Cc1onc(-c2c(F)cccc2Cl)c1C(=O)NCc1ccccc1`, the cell number change was -1.05%. For the same compound, the half-maximal activity concentration (AC50) under setting [1] is 29.1 µM [falling, single point].

Turning to `O=C(CN1C(=O)NC2(CCCCCC2)C1=O)c1ccccc1`, the cell number change was 36.2%. Under setting [2], the AC50 is 35.5 µM [rising, single point]. Further, the half-maximal activity concentration (AC50) under setting [1] is 15.8 µM [rising, partial curve].

Regarding `Cc1c(/C(O)=C2\C(=O)C(=O)N(CCN(C)C)C2c2ccco2)cnn1-c1ccccc1` (centres undefined), the cell number change is -55.7%. Further, the AC50 under setting [2] was 25.9 µM [falling, single point].

`CC(=O)CSc1nnc(-c2ccc(S(=O)(=O)N3CCOCC3)cc2)n1C`: the cell number change was -11.8%. In addition, the AC50 under setting [2] was 0.00461 µM [falling, full curve, poor fit]. Under setting [1], the AC50 is 0.112 µM [rising, full curve, poor fit].

As for `CCOC(=O)Cn1c(S(=O)(=O)Cc2ccc(Cl)cc2)nc(-c2ccccc2)c1-c1ccccc1`, the cell number change came to 2.91%. Moreover, the half-maximal activity concentration (AC50) under setting [1] was 20.6 µM [rising, single point].

In the case of `CC(=O)NC(=S)Nc1ccc(S(=O)(=O)N2CCOCC2)cc1`, the cell number change turned out to be 32.8%.

`c1ccc(C2Nc3ccccc3-c3nc4ccccc4n32)cc1` (centres undefined): the cell number change was -10.8%. For the same compound, under setting [1], the half-maximal activity concentration (AC50) was 0.411 µM [rising, partial curve, poor fit].

For the compound `CCCC(=O)Nc1ccc(Cl)c(NC(=O)c2ccc(Br)o2)c1`, the cell number change is 4.18%. For the same compound, the AC50 under setting [2] is 0.461 µM [rising, full curve, poor fit]. For the same compound, the AC50 under setting [1] was 0.517 µM [rising, full curve].

Consider `COc1cc(CO)ccc1OCC(=O)N1CCc2ccccc21`, for which the cell number change is -31.4%. The AC50 under setting [2] was 11.2 µM [falling, single point]. In addition, the AC50 under setting [1] is 10 µM [falling, partial curve, poor fit].

As for `Cc1cccc(C)c1NC(=O)COC(=O)CCC(=O)c1cccs1`, the cell number change was -32.8%. In addition, the AC50 under setting [2] is 25.9 µM [falling, single point]. Under setting [1], the AC50 was 1.46 µM [falling, full curve].

For `CCOc1ccc(-n2c(Cc3cc(=O)[nH]c(=O)[nH]3)nnc2SC(C)C(=O)OC)cc1` (centres undefined), the cell number change amounted to 30.1%. The AC50 under setting [2] was 6.51 µM [rising, single point].

For `CN(C)C1(CNCC(O)c2ccccc2)CCCCC1` (centres undefined), the cell number change stood at 8.45%. The AC50 under setting [1] was 29.1 µM [rising, single point].

`Cc1nnc(SCC(=O)Nc2cc(S(=O)(=O)N3CCOCC3)ccc2C)s1`: under setting [2], the AC50 was 3.66 µM [rising, partial curve].

Turning to `COc1cc(NC(=O)c2cccs2)ccc1NC(=O)c1cc2ccccc2o1`, the cell number change was -19.1%. The AC50 under setting [1] was 0.164 µM [rising, single point].

On to `COc1ccc2ccccc2c1/C=N/O`, for which the cell number change is -36.8%. Also, the AC50 under setting [2] was 13 µM [falling, partial curve, poor fit]. Further, under setting [1], the AC50 was 32.6 µM [falling, single point].

Regarding `CC(=O)c1cccc(-n2nnnc2SCC(=O)N2CCCC2)c1`, the cell number change was found to be 19.8%. Besides, the concentration at half-maximal activity (AC50) under setting [2] was 0.231 µM [falling, full curve, poor fit]. Under setting [1], the AC50 was 1.84 µM [falling, partial curve].

Regarding `CCOc1ccc(OCC)c(NC(=O)CN(C)S(=O)(=O)c2cccc3nsnc23)c1`, the cell number change is -5.08%. For the same compound, the AC50 under setting [1] is 1.46 µM [rising, partial curve, poor fit].

For the compound `NC(=O)c1c(NC(=O)C2CCCO2)sc2c1CCCCC2` (centres undefined), the cell number change came to 8.48%. The concentration at half-maximal activity (AC50) under setting [1] was 9.2 µM [rising, partial curve, poor fit].

Turning to `CCOC(=O)c1c(C)oc2ccc(OCC(N)=O)cc12`, the cell number change turned out to be 115%. Also, the AC50 under setting [2] is 20.6 µM [rising, single point]. Further, under setting [1], the AC50 was 29.1 µM [rising, single point].

Turning to `CC1(C)N(O)CC(c2cccs2)=[N+]1[O-]`, the cell number change is -12.8%. Also, the AC50 under setting [1] is 0.411 µM [falling, full curve, poor fit].

`COc1ccc2cc[nH]c2c1`: the cell number change is 17%. For the same compound, the AC50 under setting [1] is 0.651 µM [falling, full curve, poor fit].

As for `COc1cc(C(=O)OCC(=O)Nc2c(F)c(F)c(F)c(F)c2F)cc(OC)c1OC`, the cell number change is -8.96%.

For the compound `COc1ccc(OC)c(NC(=O)CN(c2ccc(C)cc2)S(=O)(=O)c2c(C)n[nH]c2C)c1`, the cell number change is 16.1%. Also, under setting [1], the AC50 is 6.51 µM [falling, single point].

Turning to `CCOc1ccc(NC(=O)CSc2nnc(C(C)C)n2CC)cc1`, the cell number change is 2.67%. Besides, the AC50 under setting [1] was 0.092 µM [falling, full curve, poor fit].

As to `Cc1ccc([N+](=O)[O-])cc1NC(=S)NC(=O)c1c(Cl)cnn1C`, the cell number change was 34.8%. Under setting [2], the AC50 is 29.1 µM [rising, single point]. For the same compound, the AC50 under setting [1] was 29.1 µM [rising, single point].

On to `CC(Oc1ccc(-c2ccccc2)c(F)c1)c1ccn(S(=O)(=O)c2ccc(Cl)cc2)n1` (centres undefined), for which the cell number change came out at 18%. Further, the AC50 under setting [1] was 18.4 µM [rising, partial curve].

In the case of `Cc1ccc(C(=O)CC(=O)c2ccccc2)cc1`, the cell number change came to 7.25%.

For the compound `Cc1cc(=O)nc2c3ccccc3n(C(C)C(=O)Nc3cc(F)ccc3F)n12` (centres undefined), the AC50 under setting [1] is 1.84 µM [rising, partial curve].

With `C=CCn1c(SCC(=O)Nc2ccc(F)cc2)nc2cc(C(=O)O)ccc2c1=O`, the cell number change was -3.7%.

With `O=C(Nc1ccccc1C(=O)NCC1CCCO1)c1ccc(Cl)cc1` (centres undefined), the cell number change was found to be 20.1%. For the same compound, the AC50 under setting [1] was 1.26 µM [rising, full curve].

`O=C(C1=C(O)C(=O)N(CC2CCCO2)C1c1ccccc1[N+](=O)[O-])c1ccco1` (centres undefined): under setting [1], the concentration at half-maximal activity (AC50) is 3.16 µM [falling, single point].

`NCCc1ccn[nH]1`: the cell number change is -27.4%. Further, the AC50 under setting [1] is 20.6 µM [falling, single point].

Consider `CCOc1ccc(CN(C)C(=O)c2cccnc2OCC)cc1OC`, for which the cell number change was determined as 26.3%. Besides, the concentration at half-maximal activity (AC50) under setting [1] is 14.6 µM [rising, partial curve].

Consider `CCN1CCN(CC(=O)Nc2cc(C(F)(F)F)ccc2OCCOC)CC1`, for which the cell number change is -16.1%.

Turning to `COc1ccc(NC(=O)CN(C)CC(=O)N(C)C2(C#N)CCC(C)CC2)cc1` (centres undefined), the cell number change is -8.53%.

With `COc1ccc(Nc2nc(N)nc(CSc3nccn3C)n2)cc1`, the cell number change was 4.06%. Besides, the AC50 under setting [2] is 3.66 µM [rising, partial curve, poor fit].

On to `O=S(=O)(c1cccc2cccc(Cl)c12)N1CCCC1`, for which the cell number change worked out at 104%.

For the compound `CCc1ccc(-c2nnn(CC(=O)N(C3CCCC3)C3CCS(=O)(=O)C3)n2)cc1` (centres undefined), the cell number change stood at 44.2%. In addition, the AC50 under setting [2] was 32.6 µM [rising, single point]. Further, under setting [1], the AC50 is 13 µM [rising, partial curve].

Regarding `CSCCC(NC(=O)c1ccco1)C(=O)N1CCN(C(c2ccccc2)c2ccccc2)CC1` (centres undefined), the cell number change was found to be 97%. In addition, the AC50 under setting [2] was 11.6 µM [rising, partial curve].

`COc1cc(C2C=C(C34CC5CC(CC(C5)C3)C4)NC(=S)N2)cc(OC)c1OC` (centres undefined): the half-maximal activity concentration (AC50) under setting [2] is 1.64 µM [falling, single point].

Consider `CCOc1ccc(NC(=O)CN(C)C(=O)Cc2c(C)nc3ccccc3c2C)cc1OCC`, for which the cell number change is -1.28%. The half-maximal activity concentration (AC50) under setting [1] is 0.411 µM [rising, partial curve, poor fit].

Regarding `C=C(C)Cn1c(N2CCC(Cc3ccccc3)CC2)nc2c1c(=O)[nH]c(=O)n2C`, the cell number change is -31.1%. In addition, under setting [2], the concentration at half-maximal activity (AC50) is 29.1 µM [falling, single point]. Also, the AC50 under setting [1] is 29.1 µM [falling, single point].

`C=CCN(CC=C)S(=O)(=O)c1ccc(C(=O)Nc2sc3c(c2C(N)=O)CCCCC3)cc1`: the cell number change is -23.2%. Besides, the AC50 under setting [1] is 20.6 µM [falling, single point].

For `CCOc1ncccc1C(=O)N(CC)CC(=O)NCc1ccc(Cl)cc1`, the cell number change amounted to 25.2%. Further, under setting [1], the AC50 was 0.13 µM [falling, full curve, poor fit].

As to `O=C(Nc1cccnc1N1CCOCC1)c1cc2ccccc2oc1=O`, the cell number change was -10.4%. Also, the AC50 under setting [1] was 6.51 µM [rising, partial curve, poor fit].

On to `CCOC(=O)N=Nc1c(O)n(CC)c2ccccc12`, for which the cell number change is -17%. For the same compound, under setting [1], the AC50 was 29.1 µM [rising, single point].

As to `Cn1cc(C(=O)NS(=O)(=O)Nc2ccc(Br)cc2)c2ccccc21`, the cell number change is -19.8%. In addition, the concentration at half-maximal activity (AC50) under setting [1] is 18.4 µM [rising, partial curve].

As to `NC(=O)Nc1ccccc1C(=O)Nc1ccc2ccccc2c1`, the cell number change was 2.64%.

For the compound `O=C(Nc1ccc(-c2csc(Nc3cccc(C(F)(F)F)c3)n2)cc1)c1cccc(C(F)(F)F)c1`, the cell number change was -31.4%. The half-maximal activity concentration (AC50) under setting [2] was 16.4 µM [falling, single point]. Besides, the AC50 under setting [1] was 29.1 µM [falling, single point].

Take `Cn1nnnc1Sc1ccc([N+](=O)[O-])cc1Cl`: the cell number change is -22.7%.

With `CCCC(NCC(O)COc1ccc(-c2ccccc2)cc1)c1ccccc1` (centres undefined), the cell number change is -44%. Moreover, the AC50 under setting [2] was 32.6 µM [falling, single point]. The AC50 under setting [1] is 29.1 µM [falling, single point].

(Values after PubChem BioAssay AID2685 (National Center for Advancing Translational Sciences (NCATS), 2010).)
